According to patent US12208159B2, “Compositions, methods and kits for treating a contact lens” (University of Houston System, priority 2016, dated 2025):

Each compound was assayed on human telomerase corneal epithelial cells (hTCEpi).
Format: cell-based
Experimental: Telomerase modified human corneal epithelial cells were seeded into wells of a 96 well plate with […] KGM-2 medium (Lonza Ltd, Switzerland) and incubated at 37° C. until ˜80% confluence. […] Cells treated with 0.05% benzalkonium chloride (BAC) and without any treatment served as controls. The plate was incubated at 37° C. for 18 h, and cell viability was determined using a cell counting kit-8 assay. […] All lenses are taken out, and cell viability was determined using a cell counting kit-8 assay (Dojindo Molecular Technologies, Inc. Japan).

O=C(O)c1cn(C2CC2)c2cc(N3CCN(C(=O)C(F)(F)C(F)(F)C(F)(F)F)CC3)c(F)cc2c1=O [Compound 8] was tested. Which “toxicity of loaded lenses compared to cells incubated with untreated lenses” value did it give?
Its value is “no significant difference in toxicity”.

Which “toxicity of loaded lenses compared to cells incubated with untreated lenses” value does the source give for O=C(O)c1cn(C2CC2)c2cc(N3CCN(C(=O)C(F)(F)C(F)(F)C(F)(F)C(F)(F)F)CC3)c(F)cc2c1=O [Compound 9] here?
Its value is “no significant difference in toxicity”.

O=C(O)c1cn(C2CC2)c2cc(N3CCNCC3)c(F)cc2c1=O [Compound 12, Ciprofloxacin] was tested. Which “toxicity of loaded lenses compared to cells incubated with untreated lenses” value did it give?
Its value is “no significant difference in toxicity”.
